Data taken from US20160347843A1.
Results are given in words; binding and its absence hold for the method and conditions named. Some entries that bind do so weakly or less than the wild type.

Sequences of proteins named here, by UniProt entry; tags and fusion partners are left off. A change or cut given only in a name is not applied to a line headed by its entry.
UniProt P17948: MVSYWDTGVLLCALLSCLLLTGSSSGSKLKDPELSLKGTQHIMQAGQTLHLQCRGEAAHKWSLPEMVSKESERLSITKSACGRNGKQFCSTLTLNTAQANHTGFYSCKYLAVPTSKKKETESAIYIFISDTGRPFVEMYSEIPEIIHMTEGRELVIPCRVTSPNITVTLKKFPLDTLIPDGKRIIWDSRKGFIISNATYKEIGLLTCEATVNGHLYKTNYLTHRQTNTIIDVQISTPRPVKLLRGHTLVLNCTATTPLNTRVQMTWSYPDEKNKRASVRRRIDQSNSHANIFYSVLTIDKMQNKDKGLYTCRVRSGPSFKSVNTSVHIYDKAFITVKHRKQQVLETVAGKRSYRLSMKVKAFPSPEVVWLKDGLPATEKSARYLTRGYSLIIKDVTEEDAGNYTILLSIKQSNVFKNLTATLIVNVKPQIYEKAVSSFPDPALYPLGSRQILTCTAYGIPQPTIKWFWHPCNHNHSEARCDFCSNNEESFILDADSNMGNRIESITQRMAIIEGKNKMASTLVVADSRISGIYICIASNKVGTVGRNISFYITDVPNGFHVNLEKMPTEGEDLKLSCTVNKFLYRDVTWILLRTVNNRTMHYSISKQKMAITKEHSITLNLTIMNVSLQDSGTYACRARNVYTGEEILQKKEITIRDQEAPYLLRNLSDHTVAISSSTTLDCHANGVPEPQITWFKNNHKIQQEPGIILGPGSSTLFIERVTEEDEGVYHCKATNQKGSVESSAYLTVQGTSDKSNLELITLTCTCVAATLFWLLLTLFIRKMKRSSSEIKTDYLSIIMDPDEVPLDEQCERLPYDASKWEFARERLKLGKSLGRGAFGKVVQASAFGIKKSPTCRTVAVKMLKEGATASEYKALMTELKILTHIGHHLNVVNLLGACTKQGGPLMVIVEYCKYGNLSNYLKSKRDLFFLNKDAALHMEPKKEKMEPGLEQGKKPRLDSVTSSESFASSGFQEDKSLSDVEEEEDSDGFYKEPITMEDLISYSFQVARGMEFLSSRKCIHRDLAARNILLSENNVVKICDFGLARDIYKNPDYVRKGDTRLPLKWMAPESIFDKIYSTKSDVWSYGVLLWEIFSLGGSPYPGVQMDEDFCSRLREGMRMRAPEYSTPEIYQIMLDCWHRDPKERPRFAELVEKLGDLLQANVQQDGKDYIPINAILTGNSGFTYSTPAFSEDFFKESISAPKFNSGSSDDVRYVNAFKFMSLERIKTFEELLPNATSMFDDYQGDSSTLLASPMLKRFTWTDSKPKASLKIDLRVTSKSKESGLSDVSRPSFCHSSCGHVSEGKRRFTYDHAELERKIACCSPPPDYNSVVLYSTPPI

What was measured:
[1] = target: recombinant human sFlt1-1 with C-terminal 6-histidine tag, expressed in CHO cells (human) (UniProt P17948); assay: western blot, reducing SDS-PAGE, nitrocellulose, probed with 1C-KLH-18, HRP anti-mouse secondary
[2] = target: recombinant human sFlt1-1 with C-terminal 6-histidine tag, expressed in CHO cells (human) (UniProt P17948); assay: capture ELISA
[3] = target: recombinant human sFlt1-1 with C-terminal 6-histidine tag, expressed in CHO cells (human) (UniProt P17948); assay: western blot, recombinant standards
[4] = target: recombinant human sFlt1-1 with C-terminal 6-histidine tag, expressed in CHO cells (human) (UniProt P17948); assay: capture ELISA: plate coated with anti-sFlt human antibody, recombinant sFlt1-1 titrated, detected with 1CKLH18 and anti-mouse conjugate, OD405
[5] = target: recombinant human sFlt1-1 with C-terminal 6-histidine tag, expressed in CHO cells (human) (UniProt P17948); assay: ELISA

Measured: binding

B1: mouse mAb 1C-KLH-18 (antibody, V domains shown)
VH: EVQLQQSGAELVRPGASVKLSCTASGVNIKDDYMNWVNQRPEQGLEWIGWIDPENGDTEYASKFQGKATITADTSSNTAYLQLSSLTSEDTAVYYCAAGYDYFPFVYWGQGTLVAVSA
VL: DVLMSQTPLSLPVSLGDQASISCRSSQNIVHSNGNTYLEWYLQKPGQSPKLLIHKVSNRFSGVPDRFSGSGSGTDFTLKISRVEAEDLGVYYCFQGSHVPFTFGSGTKLEKK
binds: [1] | [2] | [3] | [4] | [5]
